PubChem BioAssay AID330 (DTP/NCI, 2004)
The list is a part of this screen's results and no random one: it gathers tests that were run many times, whatever their T/C, doses with no T/C, and many T/C values between a quarter and a half above the control. Other doses and runs of a compound stand elsewhere. T/C: endpoint of the treated group in % of that of the vehicle group. Some entries give survivors of the animals treated and no T/C: the source holds a T/C of zero for them, seemingly a mark for toxic or unscored doses. Some survivor counts are full or nearly so, which does not show that the dose was tolerated: survival well below the control is almost never listed, so the zero probably covers shortened survival too. Counts of survivors are from the toxicity check (mostly the fifth day) where no day follows; animals may have died later. Schedule codes are those of the source, read here as Q, the interval in days (D) or hours (H), X, the number of doses. Counts like (3×) give the number of equal values in this list. Some entries hold several experiments; the values are given in rising order. For survival time, this PubChem deposit counts one and a half times the control or more as active, and values a quarter to a half above the control carry no call in these data; other NCI protocols may use other cut-offs. Some T/C values carry the count of animals alive at the toxicity check (mostly the fifth day); without a count, all were alive then.

Tested on: P388 leukemia ip, CD2F1 mice, survival T/C
Assay: NCI In Vivo Anticancer Drug Screen. Data for tumor model P388 Leukemia (intraperitoneal) in CD2F1 (CDF1) mice
Details: T/C endpoint: median survival time, higher T/C = longer survival
[1] = dose: 60.0 mg/kg/injection, schedule: Q01DX009 (ip), vehicle: saline
[2] = dose: 50.0 mg/kg/injection, schedule: Q01DX005 (ip), vehicle: saline with Tween-80
[3] = dose: 200.0 mg/kg/injection, schedule: Q01DX005 (ip), vehicle: saline with Tween-80
[4] = dose: 200.0 mg/kg/injection, schedule: Q01DX009 (ip), vehicle: saline with Tween-80
[5] = dose: 25.0 mg/kg/injection, schedule: Q01DX005 (ip), vehicle: distilled water + Tween-80
[6] = dose: 50.0 mg/kg/injection, schedule: Q01DX005 (ip), vehicle: Klucel (hydroxypropylcellulose) (HPC)
[7] = dose: 100.0 mg/kg/injection, schedule: Q01DX005 (ip), vehicle: Klucel (hydroxypropylcellulose) (HPC)
[8] = dose: 200.0 mg/kg/injection, schedule: Q01DX005 (ip), vehicle: Klucel (hydroxypropylcellulose) (HPC)

For `CCN(CC)C1CC(O[C@H]2C[C@](O)(C(C)=O)Cc3c(O)c4c(c(O)c32)C(=O)c2c(OC)cccc2C4=O)OC(C)C1O` (stereo not given in full), which T/C (dose: 0.5 mg/kg/injection, schedule: Q01DX009 (ip), vehicle: water) is on record?
Its T/C is 128 % of control.

And the T/C (dose: 1.0 mg/kg/injection, schedule: Q01DX009 (ip), vehicle: water, evaluated on day 30)?
Its T/C is 133 % of control.

What about the T/C (dose: 1.0 mg/kg/injection, schedule: Q01DX009 (ip), vehicle: water, evaluated on day 45) of the same compound?
The T/C was 129 % of control.

What about the T/C (dose: 2.0 mg/kg/injection, schedule: Q01DX009 (ip), vehicle: water, evaluated on day 30) of the same compound?
Its T/C is 145 % of control [5 of 6 alive].

And the T/C (dose: 2.0 mg/kg/injection, schedule: Q01DX009 (ip), vehicle: water, evaluated on day 45)?
The T/C was 148 % of control.

And the T/C (dose: 4.32 mg/kg/injection, schedule: Q04DX003 (ip), vehicle: water)?
Its T/C is 134 % of control.

What about the T/C (dose: 7.2 mg/kg/injection, schedule: Q04DX003 (ip), vehicle: water) of the same compound?
Its T/C is 147 % of control.

And the survivor count (dose: 8.0 mg/kg/injection, schedule: Q01DX009 (ip), vehicle: water)?
The survivor count was 6 of 6.

And the survivor count (dose: 16.0 mg/kg/injection, schedule: Q01DX009 (ip), vehicle: water)?
Its survivor count is 6 of 6 (2×).

And the T/C (dose: 24.0 mg/kg/injection, schedule: Q04DX003 (ip), vehicle: water)?
Its T/C is 137 % of control.

How did the T/C (dose: 2.0 mg/kg/injection, schedule: Q01DX009 (ip), vehicle: saline) turn out when `COC(=O)C[C@](O)(CCC(C)(C)O)C(=O)O[C@@H]1C(OC)=C[C@]23CCCN2CCc2cc4c(cc2[C@H]13)OCO4` was run?
Its T/C is 127 % of control.

And the survivor count (dose: 4.0 mg/kg/injection, schedule: Q01DX009 (ip), vehicle: saline)?
The survivor count was 1 of 6.

What does the source list for `COC(=O)NC1C(C)OC(OC2C/C=C(/C)C3C=CC4C(OC5CC(OC6CC(OC7CC(O)C(O)C(C)O7)C(OC7CC(O)C(OC)C(C)O7)C(C)O6)C(O)C(C)O5)C(C)CC(C)C4C3(C)/C(O)=C3\C(=O)OC4(CC(C)C(CO)=CC4/C=C\2C)C3=O)CC1(C)[N+](=O)[O-]` (stereo not given)?
T/C (dose: 30.0 mg/kg/injection, schedule: Q01DX009 (ip), vehicle: saline): 136 % of control; T/C [1]: 134 % of control; survivor count [1]: 5 of 5; survivor count (dose: 120.0 mg/kg/injection, schedule: Q01DX009 (ip), vehicle: saline): 3 of 6

How did the survivor count [2] turn out when `Cc1ccc([NH-])c(C(=O)O)c1.Cc1ccc([NH-])c(C(=O)O)c1.[Cu+2]` was run?
The survivor count was 0 of 5.

What about the survivor count (dose: 100.0 mg/kg/injection, schedule: Q01DX005 (ip), vehicle: saline with Tween-80) of the same compound?
Its survivor count is 0 of 5.

What about the survivor count [3] of the same compound?
The survivor count was 0 of 5.

With `O=C1C(Cl)=C(Nc2cccc3cc4ccccc4nc23)C(=O)c2ccccc21` as the compound, how does the survivor count (dose: 20.0 mg/kg/injection, schedule: Q01DX009 (ip), vehicle: saline) read?
Its survivor count is 5 of 6.

`CC1=C(OS(C)(=O)=O)CCC1=O` was tested. Which survivor count [3] did it give?
The survivor count was 0 of 6.

For `O=C(O)CBr`, which survivor count (dose: 50.0 mg/kg/injection, schedule: Q01DX005 (ip), vehicle: other) is on record?
Its survivor count is 3 of 6.

And the survivor count (dose: 100.0 mg/kg/injection, schedule: Q01DX005 (ip), vehicle: other)?
The survivor count was 0 of 6.

For `COc1ccc(C(=O)C2C(=O)C(=O)OC2C2OC(=O)C(=O)C2C(=O)c2ccc(OC)cc2)cc1` (stereo not given), which survivor count (dose: 120.0 mg/kg/injection, schedule: Q01DX005 (ip), vehicle: saline) is on record?
Its survivor count is 3 of 6.

What about the survivor count (dose: 240.0 mg/kg/injection, schedule: Q01DX005 (ip), vehicle: saline) of the same compound?
The survivor count was 3 of 6.

With `O=C(O)C1CSC(c2cccnc2)N1` (stereo not given) as the compound, how does the survivor count (dose: 200.0 mg/kg/injection, schedule: Q01DX009 (ip), vehicle: saline) read?
Its survivor count is 6 of 6.

`N#Cc1cc(Cl)ccc1[N+](=O)[O-]` was tested. Which survivor count [4] did it give?
Its survivor count is 0 of 6.

What does the source list for `N#Cc1ccc(NN=NCCF)cc1`?
survivor count (dose: 12.5 mg/kg/injection, schedule: Q01DX005 (ip), vehicle: distilled water + Tween-80): 3 of 6; T/C [5]: 136 % of control [4 of 6 alive]; survivor count [5]: 0 of 6; survivor count (dose: 25.0 mg/kg/injection, schedule: Q01DX005 (ip), vehicle: saline with Tween-80): 3 of 6; survivor count (dose: 50.0 mg/kg/injection, schedule: Q01DX005 (ip), vehicle: distilled water + Tween-80): 0 of 6; survivor count [2]: 3 of 6; survivor count (dose: 100.0 mg/kg/injection, schedule: Q01DX005 (ip), vehicle: distilled water + Tween-80): 0 of 6; survivor count (dose: 200.0 mg/kg/injection, schedule: Q01DX005 (ip), vehicle: distilled water + Tween-80): 0 of 6

How did the T/C (dose: 4.4 mg/kg/injection, schedule: Q04DX003 (ip), vehicle: saline with Tween-80) turn out when `COCCCN=C(N)c1ccc(NC(=O)c2ccc(C(=O)Nc3ccc(C(N)=NCCCOC)cc3)cc2)cc1` was run?
Its T/C is 140 % of control.

With `N=[N+]=NC1C(O)C(CO)OC1n1cnc2c(N)ncnc21` (stereo not given) as the compound, how does the T/C (dose: 20.0 mg/kg/injection, schedule: Q03HX016 (ip), vehicle: Klucel (hydroxypropylcellulose) (HPC)) read?
The T/C was 140 % of control.

And the T/C (dose: 40.0 mg/kg/injection, schedule: Q03HX016 (ip), vehicle: Klucel (hydroxypropylcellulose) (HPC))?
Its T/C is 141 % of control.

What does the source list for `C/C(=N\NC(=S)N1CCC(C)CC1)c1nccnc1C`?
survivor count [6]: 2 of 6; survivor count [7]: 0 of 6; survivor count [8]: 0 of 6

Which survivor count (dose: 200.0 mg/kg/injection, schedule: Q01DX005 (ip), vehicle: saline) does the source give for `Cc1cnc(F)nc1F` here?
Its survivor count is 0 of 6.

How did the survivor count (dose: 200.0 mg/kg/injection, schedule: Q04DX003 (ip), vehicle: Klucel (hydroxypropylcellulose) (HPC)) turn out when `C=CCOC(=O)CCl` was run?
Its survivor count is 0 of 6.

And the survivor count (dose: 400.0 mg/kg/injection, schedule: Q04DX003 (ip), vehicle: Klucel (hydroxypropylcellulose) (HPC))?
Its survivor count is 0 of 6.

For `COc1ccc(/C=C/C(=N/NC(=O)c2ccccc2)C(C)CN(C)C)cc1` (stereo not given), which survivor count (dose: 240.0 mg/kg/injection, schedule: Q01DX005 (ip), vehicle: Klucel (hydroxypropylcellulose) (HPC)) is on record?
Its survivor count is 0 of 6.

For `COC(=O)C12Oc3ccc(-c4ccc5c(c4O)C(O)=C4C(=O)CC(C)C(O)C4(C(=O)OC)O5)c(O)c3C(O)=C1C(=O)CC(C)C2O` (stereo not given), which survivor count (dose: 6.25 mg/kg/injection, schedule: Q01DX009 (ip), vehicle: saline with Tween-80) is on record?
Its survivor count is 6 of 6.

What about the survivor count (dose: 12.5 mg/kg/injection, schedule: Q01DX009 (ip), vehicle: saline with Tween-80) of the same compound?
Its survivor count is 6 of 6.

And the T/C (dose: 12.5 mg/kg/injection, schedule: Q04DX003 (ip), vehicle: saline with Tween-80)?
Its T/C is 127 % of control.

What about the survivor count (dose: 25.0 mg/kg/injection, schedule: Q01DX009 (ip), vehicle: saline with Tween-80) of the same compound?
Its survivor count is 5 of 6.

With `C/C(CCCC(C)(C)C(=O)O)=N/Nc1ccc([N+](=O)[O-])cc1[N+](=O)[O-]` as the compound, how does the survivor count (dose: 100.0 mg/kg/injection, schedule: Q01DX009 (ip), vehicle: saline with Tween-80) read?
The survivor count was 0 of 6.

What about the survivor count [4] of the same compound?
The survivor count was 0 of 6.

How did the survivor count (dose: 50.0 mg/kg/injection, schedule: Q01DX009 (ip), vehicle: Klucel (hydroxypropylcellulose) (HPC)) turn out when `Cc1noc(C)c1-c1onc2ccc(Cl)cc12` was run?
The survivor count was 6 of 6.

`COC(=O)C1=CCC[C@H]2C1(C)CCC(C)C21CC(c2ccoc2)OC1=O` (stereo not given in full) was tested. Which survivor count [7] did it give?
Its survivor count is 3 of 4.

Which survivor count (dose: 400.0 mg/kg/injection, schedule: Q01DX001 (ip), vehicle: saline) does the source give for `Cc1cc(N2CCOCC2)ccc1N=Nc1nc2ccccc2s1` here?
The survivor count was 6 of 6.

With `CC1NC(CCCCCCCCCCC2=CC(CCCCCCCCCCC3CCC(O)C(C)N3)C3CCCN3C2)CCC1O` (stereo not given) as the compound, how does the survivor count (dose: 7.5 mg/kg/injection, schedule: Q01DX005 (ip), vehicle: water) read?
Its survivor count is 6 of 6.

What about the survivor count (dose: 15.0 mg/kg/injection, schedule: Q01DX005 (ip), vehicle: water) of the same compound?
Its survivor count is 0 of 6, 1 of 6, 2 of 6.

And the survivor count (dose: 30.0 mg/kg/injection, schedule: Q01DX005 (ip), vehicle: water)?
Its survivor count is 0 of 6.

And the survivor count (dose: 60.0 mg/kg/injection, schedule: Q01DX005 (ip), vehicle: water)?
Its survivor count is 0 of 6.

What about the survivor count (dose: 120.0 mg/kg/injection, schedule: Q01DX005 (ip), vehicle: water) of the same compound?
The survivor count was 0 of 6.

With `C1CC2CCC(N3CCCC3)C(C1)C21OCCO1` (stereo not given) as the compound, how does the survivor count (dose: 240.0 mg/kg/injection, schedule: Q01DX005 (ip), vehicle: saline with Tween-80) read?
Its survivor count is 0 of 6.

`COc1ccc2ccc3oc([N+](=O)[O-])cc3c2c1` was tested. Which T/C [6] did it give?
Its T/C is 132 % of control.

What about the T/C [7] of the same compound?
Its T/C is 137 % of control.

And the T/C [8]?
The T/C was 132 and 136 % of control.

For `O=C(O)C(CBr)CBr`, which survivor count (dose: 200.0 mg/kg/injection, schedule: Q01DX009 (ip), vehicle: water) is on record?
Its survivor count is 0 of 6.

And the survivor count (dose: 400.0 mg/kg/injection, schedule: Q01DX009 (ip), vehicle: water)?
Its survivor count is 0 of 6.
